Values of other authors in EP0085866A1, “Derivatives of benzo-1,2-thiazine-1,1-dioxide, a process for their preparation and pharmaceutical compositions containing the same” (priority 1982, dated 1983).
For at least one compound, name, drawing or mass did not settle the structure.

Settings: analogous tests, literature, compared with piroxicam; cited from earlier work

## CN1C(C(=O)Nc2nccs2)=C(O)c2ccccc2S1(=O)=O [sudoxicam, 4-hy droxy-2-methyl-2H-1,2-benzothiazine-3-[N-(2-thiazolyl)-carboxamide]-1,1-dioxide]
  antiinflammatory activity (in words): comparable to the one of piroxicam
